Measured data: PubChem BioAssay AID652259 (Drosophila RNAi Screening Center, 2013)
In all, the deposit lists about 22,000 reagents; shown is an unselected part of those with a known target gene and a result. In the full data, 233 (1.1%) were called active. 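Light values are raw, unnormalised plate reads; the ratio scores behind the reporter calls were not deposited.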 A plus sign joins genes that one reagent is predicted to hit. Not given: the amount of reagent, the time to read-out, the dose of the treatment.

Aim: 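Knock-downs that push a Wingless-driven reporter up or down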 (primary screen)
System: Drosophila clone 8 imaginal disc epithelial cells
Knock-down reagent: long dsRNA against Drosophila genes
Conditions: pathway stimulated by co-transfected Wingless expression plasmid
Measured: 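Firefly luciferase from a tcf-site Wingless reporter, measured alongside co-transfected Renilla luciferase that tracks transfection; pathway stimulated by a Wingless plasmid; the firefly-to-Renilla ratio is not deposited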
Scale: firefly reporter light: higher = more Wg reporter light, before normalisation; Renilla control light: higher = more transfected or surviving cells
Active means: 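a knock-down is a candidate when at least two out of four statistical tests show it departing from its plate mean; one test alone signals a weak candidate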
Calls: active = candidate regulator (raises or lowers reporter); inactive = not a candidate

| predicted target | DRSC id | firefly reporter light, replicate 1 | firefly reporter light, replicate 2 | Renilla control light, replicate 1 | Renilla control light, replicate 2 | outcome |
| --- | --- | --- | --- | --- | --- | --- |
| CG7631 (GeneID 34919) | DRSC01873 | 2609 | 5720 | 1147 | 2214 | inactive |
| CG33791 + CG18170 | DRSC08523 | 7905 | – | 4074 | – | inactive |
| CG33791 + CG18170 | DRSC08601 | 4362 | – | 2037 | – | inactive |
| Mys45A (GeneID 35925) | DRSC07067 | 8807 | – | 2725 | – | inactive |
| CG7290 (GeneID 40211) | DRSC10800 | 11040 | – | 2889 | – | inactive |
| Acp36DE (GeneID 35096) | DRSC01860 | 3379 | 7128 | 994 | 3239 | inactive |
| HERC2 (GeneID 33035) | DRSC20566 | 19200 | – | 11469 | – | inactive |
| spartin (GeneID 40582) | DRSC12187 | 24284 | – | 7703 | – | inactive |
| TBC1D23 (GeneID 33289) | DRSC00657 | 2917 | 7815 | 1021 | 2564 | inactive |
| CG33752 (GeneID 3771860) | DRSC05351 | 16329 | – | 12899 | – | inactive |
| Ms (GeneID 44324) | DRSC16041 | 3712 | 7212 | 1505 | 2066 | inactive |
| Gr93c (GeneID 117471) | DRSC14587 | 34039 | – | 5834 | – | inactive |
| ppk12 (GeneID 37566) | DRSC04086 | 2708 | 7104 | 425 | 3696 | inactive |
| Cep135 (GeneID 39647) | DRSC09345 | 2608 | – | 1180 | – | inactive |
| Cep135 (GeneID 39647) | DRSC10244 | 4739 | – | 2332 | – | inactive |
| CG31496 (GeneID 326145) | DRSC12547 | 4416 | – | 2009 | – | inactive |
| CG8950 (GeneID 36921) | DRSC07300 | 15082 | – | 4912 | – | inactive |
| Nox (GeneID 5740310) | DRSC06596 | 6245 | – | 2225 | – | inactive |
| Nox (GeneID 5740310) | DRSC06857 | 6171 | – | 2409 | – | inactive |
| Gfat1 (GeneID 3354921) | DRSC21219 | 22157 | – | 9104 | – | inactive |
| Nubp1 (GeneID 35000) | DRSC02639 | 5818 | – | 1979 | – | inactive |
| CG34342 (GeneID 5740152) | DRSC09756 | 2280 | 8561 | 1546 | 3565 | inactive |
| CG34342 (GeneID 5740152) | DRSC22515 | 5.13e5 | 4.37e5 | 1.59e5 | 236 | inactive |
| MED21 (GeneID 3354977) | DRSC20932 | 22033 | – | 14808 | – | inactive |
| SCCRO (GeneID 39685) | DRSC10844 | 7209 | – | 2721 | – | inactive |
| CG14401 (GeneID 35358) | DRSC02385 | 3757 | 9856 | 1297 | 3961 | inactive |
| CG14401 (GeneID 35358) | DRSC21710 | 7.70e5 | 7.88e5 | 2.64e5 | 2.88e5 | inactive |
| Pten (GeneID 43991) | DRSC03402 | 2656 | 8808 | 1058 | 3312 | inactive |
| CG30022 (GeneID 36233) | DRSC22405 | 5.68e5 | 5.97e5 | 2.11e5 | 2.04e5 | inactive |
| pbl (GeneID 38879) | DRSC11381 | 5895 | – | 2051 | – | inactive |
| CG30269 (GeneID 37600) | DRSC04158 | 2980 | 8487 | 1028 | 4049 | inactive |
| CG11180 (GeneID 37330) | DRSC06055 | 15286 | – | 5917 | – | inactive |
| Pal1 (GeneID 36033) | DRSC06106 | 6707 | – | 2088 | – | inactive |
| CG33229 (GeneID 2768996) | DRSC07863 | 3906 | – | 1840 | – | inactive |
| Amnionless (GeneID 33199) | DRSC00317 | 2592 | 7849 | 918 | 3161 | inactive |
| CG14142 (GeneID 39261) | DRSC10145 | 5865 | – | 2505 | – | inactive |
| CG17141 (GeneID 42697) | DRSC15178 | 12134 | – | 10713 | – | inactive |
| zfh2 (GeneID 43795) | DRSC17178 | 1417 | 5840 | 938 | 1501 | inactive |
| iPLA2-VIA (GeneID 39160) | DRSC10699 | 5579 | – | 2256 | – | inactive |
| Sms (GeneID 39403) | DRSC10408 | 5895 | – | 2224 | – | inactive |
| wapl (GeneID 31187) | DRSC18851 | 2104 | 4616 | 1068 | 1958 | inactive |
| CG7214 (GeneID 34053) | DRSC03028 | 16228 | 5.90e5 | 7425 | 1.78e5 | inactive |
| CG7214 (GeneID 34053) | DRSC21869 | 9.76e5 | 5.68e5 | 4.17e5 | 4.02e5 | inactive |
| mag (GeneID 40267) | DRSC11787 | 4497 | – | 2605 | – | inactive |
| Spn88Ea (GeneID 49804) | DRSC17061 | 10659 | – | 2209 | – | inactive |
| Ugt303B3 (GeneID 42774) | DRSC14199 | 19814 | – | 17563 | – | inactive |
| CG17036 (GeneID 34679) | DRSC02564 | 2889 | 7453 | 1571 | 3736 | inactive |
| CG9676 (GeneID 32647) | DRSC20204 | 15780 | – | 9175 | – | inactive |
| Tango4 (GeneID 32168) | DRSC19786 | 2688 | 5824 | 584 | 1209 | inactive |

Reprinted from the listing for reference:
| predicted target | DRSC id | firefly reporter light, replicate 1 | firefly reporter light, replicate 2 | Renilla control light, replicate 1 | Renilla control light, replicate 2 | outcome |
| --- | --- | --- | --- | --- | --- | --- |
| MED21 (GeneID 3354977) | DRSC20932 | 22033 | – | 14808 | – | inactive |
| SCCRO (GeneID 39685) | DRSC10844 | 7209 | – | 2721 | – | inactive |
| CG14401 (GeneID 35358) | DRSC02385 | 3757 | 9856 | 1297 | 3961 | inactive |
| CG14401 (GeneID 35358) | DRSC21710 | 7.70e5 | 7.88e5 | 2.64e5 | 2.88e5 | inactive |
| Pten (GeneID 43991) | DRSC03402 | 2656 | 8808 | 1058 | 3312 | inactive |
| CG30022 (GeneID 36233) | DRSC22405 | 5.68e5 | 5.97e5 | 2.11e5 | 2.04e5 | inactive |
